These are yes or no findings as the source states them, for the method shown. Binding seen in cells or lysates may run through a third protein. Some binding calls cover weakened binding; strength is not graded here.
Tests used:
[1] = biological target: STAU1, endogenous (human (endogenous in HEK293T, KYSE150, HepG2)) (UniProt O95793); assay: co-IP; endogenous proteins, cells after circ-231 knockdown; IP of STAU1, eIF4A3 by western blot
[2] = biological target: STAU1, endogenous (human (endogenous in HEK293T, KYSE150, HepG2)) (UniProt O95793); assay: co-IP; endogenous proteins in HepG2 cells, with or without circ-231 knockdown; precipitating antibody not given
[3] = biological target: HA-STAU1-wt (pcDNA3.1-HA-STAU1 full-length) (UniProt O95793); assay: co-IP; HA-labeled full-length or deletion mutants of STAU1 transfected into HEK293T; IP with rabbit anti-HA, endogenous eIF4A3 detected by western blot
[4] = biological target: STAU1, endogenous (human (endogenous in HEK293T, KYSE150, HepG2)) (UniProt O95793); assay: co-IP; endogenous proteins in HEK293T or KYSE150 lysate (50 mM Tris-HCl pH 7.5, 150 mM NaCl, 0.5% NP-40); IP with mouse anti-STAU1, protein A/G magnetic beads, eIF4A3 by western blot; cells with Scramble or circ-231 knockdown
[5] = biological target: STAU1, endogenous (human (endogenous in HEK293T, KYSE150, HepG2)) (UniProt O95793); assay: co-IP; Flag-labeled full-length or deletion mutants of eIF4A3 transfected into HEK293T; IP with mouse anti-STAU1 (endogenous STAU1), Flag detected by western blot

Protein sequences, listed by entry. Tags and fused reporters are not part of them.
UniProt O95793: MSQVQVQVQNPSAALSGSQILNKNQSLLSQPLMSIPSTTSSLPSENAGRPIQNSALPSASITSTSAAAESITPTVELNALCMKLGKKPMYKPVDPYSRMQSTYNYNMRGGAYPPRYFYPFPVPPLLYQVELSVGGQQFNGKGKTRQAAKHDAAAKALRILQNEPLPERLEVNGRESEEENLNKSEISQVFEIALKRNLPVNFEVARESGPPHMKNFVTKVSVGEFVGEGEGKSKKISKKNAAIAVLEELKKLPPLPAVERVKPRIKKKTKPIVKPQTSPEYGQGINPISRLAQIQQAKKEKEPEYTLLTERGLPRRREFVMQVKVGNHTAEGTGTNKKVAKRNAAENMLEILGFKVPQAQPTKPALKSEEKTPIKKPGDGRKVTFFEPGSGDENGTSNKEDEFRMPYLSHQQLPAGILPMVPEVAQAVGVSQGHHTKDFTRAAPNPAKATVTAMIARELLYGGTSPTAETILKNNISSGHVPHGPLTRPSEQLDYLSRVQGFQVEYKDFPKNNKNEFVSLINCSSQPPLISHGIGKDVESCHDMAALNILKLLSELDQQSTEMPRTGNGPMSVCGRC
UniProt P38919: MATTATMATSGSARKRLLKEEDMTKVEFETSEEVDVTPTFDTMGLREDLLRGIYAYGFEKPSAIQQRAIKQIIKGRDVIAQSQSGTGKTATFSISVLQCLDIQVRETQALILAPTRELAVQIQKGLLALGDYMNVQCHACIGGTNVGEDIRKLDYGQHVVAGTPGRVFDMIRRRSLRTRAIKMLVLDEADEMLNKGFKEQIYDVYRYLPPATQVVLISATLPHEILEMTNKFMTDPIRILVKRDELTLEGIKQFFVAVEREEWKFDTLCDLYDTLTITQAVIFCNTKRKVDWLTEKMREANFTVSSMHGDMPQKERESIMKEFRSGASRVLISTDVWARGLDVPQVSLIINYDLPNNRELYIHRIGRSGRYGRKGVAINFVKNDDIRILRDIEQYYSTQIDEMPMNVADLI

binding [2] | binding [3] | binding [4] | binding [5] | Substance | binding [1]
binds | binds | binds |  | Eukaryotic translation initiation factor 4A-III (eIF4A3), endogenous (from UniProt P38919 1-411) | no binding (condition: after circ-231 knockdown)
 |  |  | binds | Flag-eIF4A3-wt (pcDNA3.1-Flag-eIF4A3 full-length) (from UniProt P38919 1-411) | 
